# Test results from the supplement of paper PMC12819154, “High-throughput peptide-centric local stability assay extends protein–ligand identification to membrane proteins, tissues and bacteria” (Nature Structural & Molecular Biology, 2025).
# Sequences of proteins named here, by UniProt entry; tags and fusion partners are left off. A change or cut given only in a name is not applied to a line headed by its entry.
# UniProt Q13322: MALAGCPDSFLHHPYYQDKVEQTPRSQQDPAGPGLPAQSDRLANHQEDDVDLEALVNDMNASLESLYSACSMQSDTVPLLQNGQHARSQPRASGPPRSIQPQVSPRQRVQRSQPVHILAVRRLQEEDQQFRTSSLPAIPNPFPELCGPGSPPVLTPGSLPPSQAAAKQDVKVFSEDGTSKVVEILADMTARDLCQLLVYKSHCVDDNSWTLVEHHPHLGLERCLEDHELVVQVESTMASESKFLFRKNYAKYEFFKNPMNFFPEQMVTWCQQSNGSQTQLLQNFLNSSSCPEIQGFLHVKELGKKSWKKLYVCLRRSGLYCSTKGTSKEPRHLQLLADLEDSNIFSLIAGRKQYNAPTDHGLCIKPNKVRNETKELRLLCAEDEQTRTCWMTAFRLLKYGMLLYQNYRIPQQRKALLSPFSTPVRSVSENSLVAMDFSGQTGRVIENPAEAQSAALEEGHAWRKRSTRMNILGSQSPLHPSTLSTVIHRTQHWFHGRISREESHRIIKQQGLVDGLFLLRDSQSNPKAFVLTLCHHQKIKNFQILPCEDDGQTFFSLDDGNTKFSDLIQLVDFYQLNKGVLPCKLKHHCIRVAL
# UniProt Q13630: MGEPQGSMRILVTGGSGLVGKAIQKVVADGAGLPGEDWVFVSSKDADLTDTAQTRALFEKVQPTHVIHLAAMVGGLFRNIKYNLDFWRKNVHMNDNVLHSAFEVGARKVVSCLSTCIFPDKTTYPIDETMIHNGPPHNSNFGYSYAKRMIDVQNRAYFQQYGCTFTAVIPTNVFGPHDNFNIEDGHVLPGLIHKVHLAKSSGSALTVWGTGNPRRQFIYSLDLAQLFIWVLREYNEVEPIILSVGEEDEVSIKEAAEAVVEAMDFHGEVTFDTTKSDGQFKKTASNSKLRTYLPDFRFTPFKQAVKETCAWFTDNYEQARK
# UniProt Q13155: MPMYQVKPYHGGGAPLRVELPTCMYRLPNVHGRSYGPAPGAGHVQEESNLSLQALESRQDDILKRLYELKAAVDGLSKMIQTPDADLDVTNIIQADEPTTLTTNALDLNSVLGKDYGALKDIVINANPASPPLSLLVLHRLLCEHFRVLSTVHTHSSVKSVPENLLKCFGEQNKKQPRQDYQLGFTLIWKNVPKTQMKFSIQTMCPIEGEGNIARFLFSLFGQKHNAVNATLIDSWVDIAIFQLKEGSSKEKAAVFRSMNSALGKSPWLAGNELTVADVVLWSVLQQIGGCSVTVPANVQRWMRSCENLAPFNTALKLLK
# UniProt Q13472: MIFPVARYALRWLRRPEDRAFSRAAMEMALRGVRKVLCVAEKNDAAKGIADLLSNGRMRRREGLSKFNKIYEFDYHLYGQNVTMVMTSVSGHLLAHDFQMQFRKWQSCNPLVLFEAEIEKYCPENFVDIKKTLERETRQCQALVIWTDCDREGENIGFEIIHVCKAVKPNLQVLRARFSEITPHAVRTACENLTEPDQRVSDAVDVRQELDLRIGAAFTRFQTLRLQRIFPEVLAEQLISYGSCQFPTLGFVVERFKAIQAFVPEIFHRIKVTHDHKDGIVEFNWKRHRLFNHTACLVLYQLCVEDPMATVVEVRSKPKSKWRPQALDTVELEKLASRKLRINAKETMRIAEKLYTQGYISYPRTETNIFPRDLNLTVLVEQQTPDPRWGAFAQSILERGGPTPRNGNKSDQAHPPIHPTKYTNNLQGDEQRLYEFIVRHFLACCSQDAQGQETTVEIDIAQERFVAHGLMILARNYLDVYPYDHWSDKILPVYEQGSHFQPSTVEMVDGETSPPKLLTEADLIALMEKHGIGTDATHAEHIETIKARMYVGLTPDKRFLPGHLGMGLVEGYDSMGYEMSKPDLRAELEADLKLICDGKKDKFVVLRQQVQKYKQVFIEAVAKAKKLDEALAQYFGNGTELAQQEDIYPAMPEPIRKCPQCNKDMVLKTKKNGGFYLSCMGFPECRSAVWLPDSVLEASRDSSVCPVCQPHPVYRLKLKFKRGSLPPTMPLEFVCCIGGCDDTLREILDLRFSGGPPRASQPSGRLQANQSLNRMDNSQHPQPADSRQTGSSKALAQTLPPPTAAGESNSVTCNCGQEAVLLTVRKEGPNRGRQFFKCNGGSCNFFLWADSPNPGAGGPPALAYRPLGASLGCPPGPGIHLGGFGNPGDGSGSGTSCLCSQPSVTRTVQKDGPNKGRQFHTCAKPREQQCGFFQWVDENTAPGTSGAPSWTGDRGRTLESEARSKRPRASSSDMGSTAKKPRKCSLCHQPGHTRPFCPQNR
# UniProt Q14CW9: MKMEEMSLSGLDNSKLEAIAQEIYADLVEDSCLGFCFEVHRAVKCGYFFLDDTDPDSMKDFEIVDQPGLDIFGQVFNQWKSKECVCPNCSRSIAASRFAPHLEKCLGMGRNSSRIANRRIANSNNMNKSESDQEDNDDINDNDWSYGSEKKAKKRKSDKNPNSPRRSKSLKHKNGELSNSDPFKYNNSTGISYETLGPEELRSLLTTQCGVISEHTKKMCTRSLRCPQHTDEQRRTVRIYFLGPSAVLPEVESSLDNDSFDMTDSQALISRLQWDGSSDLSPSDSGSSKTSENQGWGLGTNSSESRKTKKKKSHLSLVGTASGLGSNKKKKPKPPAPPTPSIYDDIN
# UniProt Q14691: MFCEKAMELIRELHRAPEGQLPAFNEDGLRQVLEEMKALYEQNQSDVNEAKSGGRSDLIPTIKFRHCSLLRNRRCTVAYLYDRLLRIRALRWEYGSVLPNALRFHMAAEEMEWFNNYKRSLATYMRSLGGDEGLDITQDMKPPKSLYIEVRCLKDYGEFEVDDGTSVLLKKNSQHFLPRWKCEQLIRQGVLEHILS
# UniProt Q13268: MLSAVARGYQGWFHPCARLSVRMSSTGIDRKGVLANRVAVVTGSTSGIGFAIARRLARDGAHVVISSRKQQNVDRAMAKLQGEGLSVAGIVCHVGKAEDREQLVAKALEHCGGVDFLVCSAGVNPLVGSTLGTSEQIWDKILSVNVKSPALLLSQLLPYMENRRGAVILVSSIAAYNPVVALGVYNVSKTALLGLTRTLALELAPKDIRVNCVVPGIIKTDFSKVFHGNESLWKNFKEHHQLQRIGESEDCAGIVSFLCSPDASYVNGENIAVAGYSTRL
# UniProt Q13905: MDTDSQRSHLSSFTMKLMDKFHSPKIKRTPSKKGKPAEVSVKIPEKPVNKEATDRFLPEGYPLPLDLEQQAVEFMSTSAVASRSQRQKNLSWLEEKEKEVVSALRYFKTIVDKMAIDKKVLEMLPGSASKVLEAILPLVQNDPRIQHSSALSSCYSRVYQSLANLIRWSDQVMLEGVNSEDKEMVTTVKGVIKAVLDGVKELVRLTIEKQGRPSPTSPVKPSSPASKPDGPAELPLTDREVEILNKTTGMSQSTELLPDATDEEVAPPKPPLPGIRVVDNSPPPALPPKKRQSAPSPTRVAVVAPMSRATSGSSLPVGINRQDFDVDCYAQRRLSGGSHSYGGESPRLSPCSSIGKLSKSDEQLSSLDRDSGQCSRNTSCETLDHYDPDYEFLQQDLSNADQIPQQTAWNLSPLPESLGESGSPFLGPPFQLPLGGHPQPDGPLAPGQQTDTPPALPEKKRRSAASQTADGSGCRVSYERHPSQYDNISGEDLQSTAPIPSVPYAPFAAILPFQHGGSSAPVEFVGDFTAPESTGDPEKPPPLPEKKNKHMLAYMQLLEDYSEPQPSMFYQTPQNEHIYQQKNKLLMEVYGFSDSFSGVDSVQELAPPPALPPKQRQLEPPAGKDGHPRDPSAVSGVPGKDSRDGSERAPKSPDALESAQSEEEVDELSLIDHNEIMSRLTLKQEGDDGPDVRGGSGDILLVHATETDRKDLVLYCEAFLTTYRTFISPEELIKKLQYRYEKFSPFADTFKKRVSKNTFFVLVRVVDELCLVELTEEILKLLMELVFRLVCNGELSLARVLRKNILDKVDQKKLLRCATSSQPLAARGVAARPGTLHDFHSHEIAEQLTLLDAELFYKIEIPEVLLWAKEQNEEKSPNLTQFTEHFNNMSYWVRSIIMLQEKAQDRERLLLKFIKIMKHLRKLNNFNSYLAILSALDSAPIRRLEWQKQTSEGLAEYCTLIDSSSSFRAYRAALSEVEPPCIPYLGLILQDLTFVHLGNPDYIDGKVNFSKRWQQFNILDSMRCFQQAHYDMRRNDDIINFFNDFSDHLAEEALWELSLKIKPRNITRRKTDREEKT
# UniProt Q13946: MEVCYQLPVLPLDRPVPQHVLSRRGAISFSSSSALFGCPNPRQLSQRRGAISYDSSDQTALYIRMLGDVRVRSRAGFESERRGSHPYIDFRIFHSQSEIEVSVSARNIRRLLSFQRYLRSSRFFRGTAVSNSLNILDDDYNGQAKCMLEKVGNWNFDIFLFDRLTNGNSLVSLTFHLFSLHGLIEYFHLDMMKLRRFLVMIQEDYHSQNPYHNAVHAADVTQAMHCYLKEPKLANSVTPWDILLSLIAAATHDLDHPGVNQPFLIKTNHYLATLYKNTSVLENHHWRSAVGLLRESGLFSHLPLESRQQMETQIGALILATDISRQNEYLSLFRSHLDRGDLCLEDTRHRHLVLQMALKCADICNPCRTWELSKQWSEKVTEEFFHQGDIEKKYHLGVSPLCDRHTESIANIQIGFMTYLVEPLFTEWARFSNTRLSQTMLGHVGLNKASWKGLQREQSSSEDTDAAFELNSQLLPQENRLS
# UniProt Q14153: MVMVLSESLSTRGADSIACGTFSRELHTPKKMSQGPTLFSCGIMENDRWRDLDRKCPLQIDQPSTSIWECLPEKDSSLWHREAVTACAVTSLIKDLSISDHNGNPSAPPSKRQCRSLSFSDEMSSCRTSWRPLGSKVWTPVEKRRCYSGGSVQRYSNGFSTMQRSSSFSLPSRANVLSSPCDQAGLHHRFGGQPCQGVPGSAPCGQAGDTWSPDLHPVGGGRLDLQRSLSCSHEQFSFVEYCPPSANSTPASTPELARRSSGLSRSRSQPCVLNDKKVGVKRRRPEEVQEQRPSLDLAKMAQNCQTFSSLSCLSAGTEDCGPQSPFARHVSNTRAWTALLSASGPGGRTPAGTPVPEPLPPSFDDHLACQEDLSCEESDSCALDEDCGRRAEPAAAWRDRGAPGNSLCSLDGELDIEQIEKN
# UniProt Q14061: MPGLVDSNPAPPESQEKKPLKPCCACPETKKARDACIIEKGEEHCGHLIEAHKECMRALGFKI
# UniProt Q14C86: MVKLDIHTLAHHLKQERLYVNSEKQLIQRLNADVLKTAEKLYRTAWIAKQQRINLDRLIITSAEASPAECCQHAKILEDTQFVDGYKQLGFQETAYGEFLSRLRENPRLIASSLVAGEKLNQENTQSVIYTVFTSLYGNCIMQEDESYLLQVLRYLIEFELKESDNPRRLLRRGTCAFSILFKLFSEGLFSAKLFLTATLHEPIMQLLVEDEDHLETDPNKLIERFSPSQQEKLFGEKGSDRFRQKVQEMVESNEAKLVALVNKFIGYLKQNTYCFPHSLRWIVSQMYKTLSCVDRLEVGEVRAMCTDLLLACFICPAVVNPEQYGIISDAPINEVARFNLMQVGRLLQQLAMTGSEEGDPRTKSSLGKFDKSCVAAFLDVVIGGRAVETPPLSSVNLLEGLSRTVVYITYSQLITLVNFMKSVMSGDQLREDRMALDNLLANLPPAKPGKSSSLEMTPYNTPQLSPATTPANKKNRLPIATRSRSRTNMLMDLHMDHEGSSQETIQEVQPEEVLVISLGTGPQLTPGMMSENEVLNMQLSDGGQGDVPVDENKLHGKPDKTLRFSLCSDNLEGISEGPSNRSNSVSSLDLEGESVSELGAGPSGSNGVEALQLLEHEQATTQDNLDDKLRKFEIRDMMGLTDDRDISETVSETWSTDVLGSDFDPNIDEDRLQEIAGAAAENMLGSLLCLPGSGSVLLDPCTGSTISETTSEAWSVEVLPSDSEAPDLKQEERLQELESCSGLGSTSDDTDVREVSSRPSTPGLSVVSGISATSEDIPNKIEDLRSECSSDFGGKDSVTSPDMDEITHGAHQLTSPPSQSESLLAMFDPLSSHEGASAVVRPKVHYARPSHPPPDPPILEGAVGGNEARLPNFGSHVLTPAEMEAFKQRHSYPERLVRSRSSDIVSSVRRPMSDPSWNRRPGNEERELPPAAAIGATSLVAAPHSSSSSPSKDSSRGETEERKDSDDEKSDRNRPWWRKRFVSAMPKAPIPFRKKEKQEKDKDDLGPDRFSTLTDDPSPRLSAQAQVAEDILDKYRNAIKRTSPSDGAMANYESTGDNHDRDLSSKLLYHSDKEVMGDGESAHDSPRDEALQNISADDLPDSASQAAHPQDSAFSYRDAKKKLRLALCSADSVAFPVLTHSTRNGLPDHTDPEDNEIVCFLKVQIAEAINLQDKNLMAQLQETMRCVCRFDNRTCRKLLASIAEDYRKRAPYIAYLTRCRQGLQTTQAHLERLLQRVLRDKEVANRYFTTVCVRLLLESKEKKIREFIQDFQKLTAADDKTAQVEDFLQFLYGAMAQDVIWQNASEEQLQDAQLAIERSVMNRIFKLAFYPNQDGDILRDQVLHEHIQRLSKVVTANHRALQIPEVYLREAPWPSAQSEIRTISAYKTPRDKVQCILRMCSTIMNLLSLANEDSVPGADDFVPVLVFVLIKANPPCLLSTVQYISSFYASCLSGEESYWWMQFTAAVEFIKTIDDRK
# Some of the results follow. Small differences around the control level are noise.
# Compound: CN[C@@H]1C[C@H]2O[C@@](C)([C@@H]1OC)n1c3ccccc3c3c4c(c5c6ccccc6n2c5c31)C(=O)NC4 [staurosporine]
# Experiment: log2 fold change of tryptic peptide abundance, ligand vs vehicle (limited proteolysis) (log2 ratio); higher = more trypsin-susceptible (destabilized)
# Conditions: ligand concentration: 20 uM; sample: K562 cleared lysate; digestion: 4 min, 22 C (HT-PELSA RT4min, Orbitrap Astral)
row,Target,log2 fold change
1,"GRB10 (peptide sequence: LLCAEDEQTR, peptide start residue: 378) (UniProt Q13322)",0.586
2,"FLOT2 (peptide sequence: QVLLAQAEAEKIR, peptide start residue: 308) (UniProt Q14254)",-0.255
3,"UniProt Q14767 (peptide sequence: GSCSRPQLCVCR, peptide start residue: 199)",0.392
4,"DYNC1I2 (peptide sequence: EAVAPVQEESDLEKK, peptide start residue: 42) (UniProt Q13409)",-0.0904
5,"SNX1 (peptide sequence: LHAVVETLVNHRK, peptide start residue: 326) (UniProt Q13596)",0.188
6,"BLMH (peptide sequence: KTLYNNQPIDFLKK, peptide start residue: 297) (UniProt Q13867)",0.349
7,"LAGE3 (peptide sequence: GGVDTAAAPAGGAPPAHAPGPGR, peptide start residue: 25) (UniProt Q14657)",-0.0488
8,"TSTA3 (peptide sequence: ILVTGGSGLVGK, peptide start residue: 10) (UniProt Q13630)",-0.151
9,"NOLC1 (peptide sequence: GGSISVQVNSIK, peptide start residue: 684) (UniProt Q14978)",0.331
10,"MTMR1 (peptide sequence: NVERDPHFILDVPLGVISR, peptide start residue: 138) (UniProt Q13613)",-0.335
11,"PDIA5 (peptide sequence: FHISEFPTLK, peptide start residue: 347) (UniProt Q14554)",-0.0213
12,"FKBP5 (peptide sequence: FAEQDAKEEANK, peptide start residue: 416) (UniProt Q13451)",-0.121
13,"NFIX (peptide sequence: SITSPPSTSTTK, peptide start residue: 265) (UniProt Q14938)",0.00219
14,"DSG2 (peptide sequence: HSTVQHSYS, peptide start residue: 1110) (UniProt Q14126)",-0.516
15,"HDAC1 (peptide sequence: YYAVNYPLR, peptide start residue: 221) (UniProt Q13547)",-0.301
16,"PUM1 (peptide sequence: IRPHIATLR, peptide start residue: 1144) (UniProt Q14671)",0.584
17,"UniProt Q13155 (peptide sequence: VLSTVHTHSSVK, peptide start residue: 148)",-0.641
18,"KPNB1 (peptide sequence: LAATNALLNSLEFTK, peptide start residue: 192) (UniProt Q14974)",0.695

# Single values from the entries so far:
# For log2 fold change, UniProt Q13155 (peptide sequence: VLSTVHTHSSVK, peptide start residue: 148) reads -0.641
# For log2 fold change, HDAC1 (peptide sequence: YYAVNYPLR, peptide start residue: 221) (UniProt Q13547) reads -0.301

# Next part.

row,Target,log2 fold change
1,"TOP3A (peptide sequence: AAMEMALR, peptide start residue: 24) (UniProt Q13472)",-0.431
2,"ATXN7L3 (peptide sequence: IANSNNMNK, peptide start residue: 120) (UniProt Q14CW9)",0.482
3,"KCTD2 (peptide sequence: PAAAVAQPLEPGPGPPER, peptide start residue: 47) (UniProt Q14681)",0.615
4,"CBLB (peptide sequence: RLPGENVK, peptide start residue: 874) (UniProt Q13191)",0.562
5,"GINS1 (peptide sequence: CTVAYLYDR, peptide start residue: 75) (UniProt Q14691)",0.263
6,"DHRS2 (peptide sequence: VNCVVPGIIKTDFSK, peptide start residue: 210) (UniProt Q13268)",-0.366
7,"RAPGEF1 (peptide sequence: VLEAILPLVQNDPR, peptide start residue: 131) (UniProt Q13905)",0.495
8,"CBFB (peptide sequence: SHREEMEVR, peptide start residue: 159) (UniProt Q13951)",0.222
9,"UniProt Q13885 (peptide sequence: YLTVAAIFR, peptide start residue: 310)",-0.124
10,"PPP2R5C (peptide sequence: LFDDCTQQFK, peptide start residue: 404) (UniProt Q13362)",0.133
11,"DNAJC3 (peptide sequence: EVLSDPEMR, peptide start residue: 447) (UniProt Q13217)",0.25
12,"UniProt Q13946 (peptide sequence: QNEYLSLFR, peptide start residue: 326)",-0.263
13,"FAM53B (peptide sequence: RAEPAAAWR, peptide start residue: 390) (UniProt Q14153)",0.403
14,"COX17 (peptide sequence: KPLKPCCACPETK, peptide start residue: 18) (UniProt Q14061)",-0.322
15,"NAB1 (peptide sequence: DYPHSAFTLEK, peptide start residue: 466) (UniProt Q13506)",-0.291
16,"UBXN2B (peptide sequence: EHGAVPLNEATR, peptide start residue: 94) (UniProt Q14CS0)",0.239
17,"HLTF (peptide sequence: LSYPTFFPR, peptide start residue: 28) (UniProt Q14527)",0.29
18,"GAPVD1 (peptide sequence: SECSSDFGGK, peptide start residue: 787) (UniProt Q14C86)",-0.212
